# Screening data

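Luminescence from an EWS-FLI1 target-promoter (NR0B1) reporter, set against a CMV-promoter reporter, two days after silencing single genes in TC32 Ewing sarcoma cells. Each siRNA was applied at 20 nM. A z-score of the log NR0B1-over-CMV signal, less the median of siRNAs with the same seed; more negative means a stronger specific loss of the NR0B1 reporter.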

The strongest results of the screen are mostly left out here. Sequences are the guide (antisense) strand, without overhang.

* UUCGCUAAGGUUUUAGGUG against OR8H1 | seed-corrected z-score 1.091
* UCAUCGUCUACUCAAGUAG against THAP8 | seed-corrected z-score -1.423
* UAUGAGGGCAGCGUAUACU against RNASE3 | seed-corrected z-score -0.7729
* AGUUCACCCAGAAAAGCGC against PRKDC | seed-corrected z-score 0.2197
* AUAGGGUCAGGAAGUGCCG against AANAT | seed-corrected z-score -0.08097
* UCAGGUUCAUCAUAGAUGG against DOK1 | seed-corrected z-score -0.5407
* UUCUUGUCUUUGUCGCUCC against N4BP2 | seed-corrected z-score -1.342
* UUACUAAUAGGAGAGCUGC against DMRT1 | seed-corrected z-score 0.5572
* UUCUCGAACGGGUAGUUGA against NDUFS8 | seed-corrected z-score -0.2502
* UCCAUGAAAUCCUCCAAGC against POFUT1 | seed-corrected z-score 0.846
* UCUCUUCACAUCUUCCGGC against PMPCA | seed-corrected z-score -0.2105
* UAAGAUCUCACACCACCUC against LINC01118 | seed-corrected z-score 0.3215
* AUUAGAUCAACUAUGGACG against SOCS6 | seed-corrected z-score -0.5468
* UUGGUGGUAAGUAGACAGC against ESD | seed-corrected z-score -0.5656
* UUUGCCCUGUCACAAAUAC against PTPRC | seed-corrected z-score -0.7582
* UUCUUGAUACAGGCGACCA against PLCXD1 | seed-corrected z-score 0.03008
* AAGAUGUAAACUGCUAGGG against MAMDC2 | seed-corrected z-score -1.171
* ACGGUGAUCAAUGUCAUGC against BCLAF1P1 | seed-corrected z-score -0.5319
* AUACAGAUCCGGCCGAUUC against YIPF2 | seed-corrected z-score -1.618
* AUGUUUCCAACUCUAAUUU against SH2D1B | seed-corrected z-score -1.182
* AGAUGAAGCAGUACAUGGG against MC1R | seed-corrected z-score 0.02139
* UCCAUUGUUGCUGUAGGCC against CDHR2 | seed-corrected z-score -0.6686
* UAACCUUGGUUUUAUCUCC against HMGN2P46 | seed-corrected z-score 0.1262
* UGUCUGUAAGCUCAAGCCC against FAM159A | seed-corrected z-score -0.1493
* AGUUGUUCCACUCGUUUGC against CEP83 | seed-corrected z-score -0.4075
* AGAGGGAAGAAGUUGCUGU against MFSD13A | seed-corrected z-score -1.802
* UCUGGUAGAACUCAUCUUC against VPS72 | seed-corrected z-score -0.3287
* UGAGAUAUGAACGAGUCUG against CNBD1 | seed-corrected z-score -0.04795
* AGAUGUCGUAGCAGUGCUC against DPP7 | seed-corrected z-score -1.543
* UAGUCUCCAAUGGUCUCCU against CD68 | seed-corrected z-score 0.1707
* UCUUCAGCAACCGCAUUUC against SIX5 | seed-corrected z-score -0.8266

3 of the entries, repeated:

| strand | target gene | seed-corrected z-score |
|---|---|---|
| `AGUUCACCCAGAAAAGCGC` | PRKDC | 0.2197 |
| `UUCUUGAUACAGGCGACCA` | PLCXD1 | 0.03008 |
| `UUUGCCCUGUCACAAAUAC` | PTPRC | -0.7582 |

From PubChem BioAssay record AID1159506 (NCATS, 2015).